Measured values: PubChem BioAssay AID1688 (National Center for Advancing Translational Sciences (NCATS), 2009)
Among all 220,000 compounds or so, about 2,400 (1.1%) were called active. Inconclusive means that the source gave no clear call. Such entries were picked first, then a sample of the others. The call rests on the fitted dose curve; in most records, active means well fitted inhibition curve with a large enough effect; inconclusive means small, poorly fitted or top-dose-only effect, or effect the other way; inactive means no such curve, though single readings can be large or run the other way. Where the call is inconclusive, the potency comes from a doubtful curve fit.

Assay: qHTS Multiplex Assay to Identify Dual Action Probes in a Cell Model of Huntington: Aggregate Formation (GFP); further: nearly all actives have a fitted effect of over 60% in size
Conditions: PC12 HttQ103-GFP aggregates, Acumen cytometry, 40 h; activity change, negative = inhibition: at 46.1 µM (top of the series) unless noted
In short: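 Using laser scanning cytometry, GFP-positive aggregates were counted after lysis of PC12 cells induced with 100 nM tebufenozide to express HTT exon 1 Q103–GFP. Compounds were tested in titration.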
On the % scale 0 is the no-effect control and ±100 the full control effect; potency means the concentration at half of the fitted maximal effect.

Structure (SMILES)	Potency	activity change, negative = inhibition
COc1cccc(-c2cc(C(=O)Nc3c(C)nn(Cc4ccccc4)c3C)no2)c1	inconclusive: 22.4 µM [inhibitor, single point]	–
Clc1nc2c(-c3ccccc3)nnn2c2ccccc12	inconclusive: 3.16 µM [inhibitor, single point]	–
CC(=O)c1c(NCc2ccccc2)nc(=O)n(-c2ccccc2)c1C	inactive	–
CCCc1nn(C)c(C(=O)Nc2ccc(Cl)cc2)c1Cl	inactive	–
Cc1sc(NC(=O)C2CCCC2)c(C#N)c1C	inactive	–
COC(=O)c1sc(NC(=O)c2ccc([N+](=O)[O-])o2)c(C#N)c1C	–	inactive: 11.1% [at 9.22 µM]
CCOC(=O)C(CCc1ccccc1)NC(C)C(=O)N1Cc2ccccc2CC1C(=O)O (configuration not stated)	inactive	–
C=CCN1C=C2C(=O)C(C)(OC(=O)c3cccs3)C(=O)C=C2C=C1CCCC(=O)OC (configuration not stated)	inconclusive: 2 µM [inhibitor, partial curve]	–
O=C(Nc1nc(-c2ccccn2)cs1)c1ccc(Br)s1	active: 1.26 µM	–
Oc1c(Cl)cc(Cl)c2c1NCCC2	inconclusive: 35.5 µM [inhibitor, single point]	–
C/C(=N\OCC(=O)NC12CC3CC(CC(C3)C1)C2)c1cc2ccccc2o1	inconclusive: 22.4 µM [inhibitor, single point]	–
O=C(c1ccco1)N1CCN(c2nc(C(F)(F)F)nc3c2nnn3Cc2ccccc2)CC1	inconclusive: 35.5 µM [inhibitor, single point]	–
COc1ccc(OC)c2[nH]c(=O)c(CCNC(C)=O)cc12	inactive	–
COc1cc2[nH]c(=S)n(Cc3ccccc3)c(=O)c2cc1OC	inactive	–
COc1ccc(C(=O)N2CCCCC2)cc1S(=O)(=O)Nc1ccccc1	inactive	–
CN(C)S(=O)(=O)N1CCN(S(=O)(=O)c2ccccc2)CC1	inactive	–
CC1=C(C(=O)OCc2ccc3c(c2)OCO3)C(c2cccc([N+](=O)[O-])c2)NC(=O)N1 (configuration not stated)	inconclusive: 2.82 µM [inhibitor, full curve]	–
O=C(NCCCCNC(=O)c1c(F)c(F)c(F)c(F)c1F)c1c(F)c(F)c(F)c(F)c1F	inconclusive: 0.251 µM [activator, full curve]	–
CCNC1=C(Cl)C(=O)c2ccccc2C1=O	active: 12.6 µM	–
O=C(Nc1ccc(Nc2ccccc2)cc1)C(Cl)(Cl)Cl	inconclusive: 35.5 µM [inhibitor, single point]	–
Oc1ccc(-c2cnns2)c(O)c1	inconclusive: 35.5 µM [inhibitor, single point]	–
CN(C)c1ncc(/C=C2/C(=O)NC(=S)N(C3CCCCC3)C2=O)cn1	inactive	–
CCOC(=O)c1cnc(Nc2nc3ccccc3o2)nc1CSC(=S)N(CC)CC	inconclusive: 3.55 µM [activator, partial curve]	–
CCc1ccc(N(C2C=CS(=O)(=O)C2)S(=O)(=O)c2ccccc2)cc1 (configuration not stated)	inconclusive: 7.94 µM [activator, partial curve]	–

Structure (SMILES)	Potency	activity change, negative = inhibition
Cn1cccc1C(=O)NC(=O)COC(=O)CC12CC3CC(CC(Br)(C3)C1)C2	inconclusive: 31.6 µM [activator, single point]	–
CCc1ccc(NC(=O)c2cnc3n(c2=O)CCS3)cc1	inconclusive: 15.8 µM [inhibitor, single point]	–
Oc1ccc(/C=N/NC(=S)Nc2cccnc2)c(O)c1	inconclusive: 8.91 µM [inhibitor, partial curve]	–
CC(=O)c1cccc(NC(=O)NC2CC3CCCC(C2)N3CC(C)C)c1 (configuration not stated)	inactive	–
CCCCCn1c(SCc2cccc(C)c2)nc2c1c(=O)[nH]c(=O)n2C	–	inactive: 6.72% [at 9.22 µM]
COc1ccc(/C=C(/C(=O)c2ccc(Cl)cc2Cl)n2cncn2)cc1	inconclusive: 25.1 µM [inhibitor, single point]	–
CCn1c(SCC(=O)Nc2ccc(Cl)cc2)nc2nc3c(cc2c1=O)CCCC3	inactive	–
CCOC(=O)N1CCN(S(=O)(=O)c2cc(Br)cc3c2N(C(=O)CC)CC3)CC1	inactive	–
O=C(COC(=O)c1cc([N+](=O)[O-])ccc1NCc1ccccc1)NC1CCCc2ccccc21 (configuration not stated)	inconclusive: 8.91 µM [activator, partial curve]	–
CCc1ccccc1N/N=C(/C)c1c(O)cc(C)oc1=O	inactive	–
O=C(NNC(=S)Nc1cccc(C(F)(F)F)c1)c1cccc(Cl)c1	inconclusive: 35.5 µM [inhibitor, single point]	–
Cc1cc(C)cc(NS(=O)(=O)c2ccc(Oc3ncc(C(F)(F)F)cc3Cl)cc2)c1	inconclusive: 35.5 µM [inhibitor, single point]	–
O=C(NCCc1ccc(Cl)cc1)/C(=C/c1cccnc1)NC(=O)c1ccccc1	inactive	–
CCOc1ccccc1-n1cnc2cc(C(=O)NCc3ccco3)ccc21	inconclusive: 35.5 µM [inhibitor, single point]	–
Cc1cccc(NC(=O)c2oc(=O)c3ccccc3c2-c2ccccc2)c1C	inactive	–
O=[N+]([O-])c1cc(CN2CCCC2)c2cccnc2c1O	inconclusive: 35.5 µM [inhibitor, partial curve]	–
COc1cc(/C=N/NC(=O)c2cc(C34CC5CC(CC(C5)C3)C4)[nH]n2)ccc1O	inconclusive: 10 µM [activator, single point]	–
Cc1cc(N/N=C/c2ccccc2)nc(NCc2ccccc2)n1	inactive	–
COC(CC(=O)NNC(=S)Nc1ccccc1)OC	inconclusive: 0.316 µM [activator, full curve, poor fit]	–
COc1ccc(S(=O)(=O)NC(CC(=O)N2CCc3ccccc32)c2ccco2)cc1 (configuration not stated)	inactive	–
COc1ccc(Cl)cc1N(CC(=O)N/N=C/c1ccc(OC(C)C)cc1)S(=O)(=O)c1ccc(C)c([N+](=O)[O-])c1	inconclusive: 4.47 µM [activator, full curve, poor fit]	–
Cc1nc(NC(=O)CSc2nc3cccnc3n2Cc2ccccc2)sc1C	inconclusive: 5.62 µM [activator, single point]	–
Cc1ccc(C(=O)OCCc2sc[n+](Cc3ccccc3)c2C)cc1	inconclusive: 5.62 µM [inhibitor, single point]	–
O=C(O)CNC(=O)CC1S/C(=N/N=C2\CSC(=O)N2)NC1=O (configuration not stated)	inactive	–

Five entries from above, sorted by SMILES length, rising.
Structure (SMILES)	Potency	activity change, negative = inhibition
O=[N+]([O-])c1cc(CN2CCCC2)c2cccnc2c1O	inconclusive: 35.5 µM [inhibitor, partial curve]	–
CC(=O)c1cccc(NC(=O)NC2CC3CCCC(C2)N3CC(C)C)c1 (configuration not stated)	inactive	–
Cc1cc(C)cc(NS(=O)(=O)c2ccc(Oc3ncc(C(F)(F)F)cc3Cl)cc2)c1	inconclusive: 35.5 µM [inhibitor, single point]	–
COc1cc(/C=N/NC(=O)c2cc(C34CC5CC(CC(C5)C3)C4)[nH]n2)ccc1O	inconclusive: 10 µM [activator, single point]	–
O=C(COC(=O)c1cc([N+](=O)[O-])ccc1NCc1ccccc1)NC1CCCc2ccccc21 (configuration not stated)	inconclusive: 8.91 µM [activator, partial curve]	–

The listing continues:

Structure (SMILES)	Potency	activity change, negative = inhibition
[O-][n+]1onc2c1CCc1c-2nn(-c2ccccc2Cl)[n+]1[O-]	active: 11.2 µM	–
Cc1cccc(/C=C(\c2nc3ccccc3[nH]2)S(=O)(=O)c2ccccc2)c1	inconclusive: 5.62 µM [inhibitor, single point]	–
COc1ccc(C(=O)N/N=C/c2sc3ccccc3c2O)cc1	active: 11.2 µM	–
COc1ccc(NS(=O)(=O)c2ccc(OC)c(N(C)S(=O)(=O)c3ccc(Cl)cc3)c2)cc1	inconclusive: 35.5 µM [inhibitor, single point]	–
COc1ccccc1/C=C1\CCCC2=C1Nc1nnnn1C2c1ccccc1OC (configuration not stated)	–	inactive: 11.7% [at 9.22 µM]
FC(F)(F)c1cccc(NC(=S)NCc2ccc(Cl)cc2)c1	inconclusive: 35.5 µM [inhibitor, single point]	–
CC1(C)CC(=O)C(/C=N/c2ncccc2C(=O)O)=C(O)C1	inactive	–
CCn1c(CNC(=O)c2ccc(OC)cc2)nnc1SCC(=O)c1ccccc1	inconclusive: 14.1 µM [activator, single point]	–
Cc1ccccc1OCc1nc2ccccc2c(=O)n1/N=C/c1cccc([N+](=O)[O-])c1	inconclusive: 0.631 µM [activator, full curve]	–
CCOC(=S)SCC(=O)N1CCc2cc(OC)ccc2C1C1C(=O)CCCC1=O (configuration not stated)	inconclusive: 17.8 µM [activator, single point]	–
CCOC(=O)N1CCN(C(=O)c2ccc3c(=O)n(CCC4=CCCCC4)c(=O)[nH]c3c2)CC1	inactive	–
COc1ccc(-n2nc3c(c2NC(=O)c2c(-c4ccccc4Cl)noc2C)CS(=O)(=O)C3)cc1	inconclusive: 35.5 µM [inhibitor, partial curve, poor fit]	–
O=C(COc1ccccc1F)NNC(=O)c1ccc(N2CCCCC2)c([N+](=O)[O-])c1	inconclusive: 25.1 µM [inhibitor, single point]	–
Cc1cc(C)nc(N/N=C/c2sccc2C)n1	inconclusive: 8.91 µM [inhibitor, partial curve]	–
Cc1ccc(NC(=O)CSc2nc3ccccc3c(=O)n2CCCN2CCCCC2)cc1C	inconclusive: 35.5 µM [inhibitor, single point]	–
COc1ccc([N+](=O)[O-])cc1NC(=O)c1ccc(CN(c2ccc(C)c(C)c2)S(C)(=O)=O)cc1	inconclusive: 5.62 µM [activator, single point]	–
O=C(NCc1ccco1)c1ccc(COc2ccccc2Cl)cc1	inactive	–
O=C(NCc1ccccc1)c1sc(=S)n2c1[nH]c(=O)c1ccccc12	inconclusive: 35.5 µM [inhibitor, single point]	–
Cc1ccccc1C(=O)NC(=S)Nc1ccccc1N1CCCC1	–	inactive: -1.63% [at 9.22 µM]
Cc1ccc(-c2cc3c(n2-c2ccc(C(=O)O)cc2)CCCC3=O)cc1	inconclusive: 35.5 µM [activator, single point]	–
COc1cccc(OC)c1C(=O)NC(=S)Nc1ccc2c(c1)C(=O)N(C)C2=O	inactive	–
C=CCNC(=O)c1ccccc1NC(=O)C1COc2ccccc2O1 (configuration not stated)	active: 3.55 µM	–
Cc1ccc(-n2cc(C(=O)c3ccccc3O)cn2)cc1	inactive	–
CCN=c1scc(-c2ccc3c(c2)NC(=O)CO3)n1N=C1CCCC1	active: 11.2 µM	–
